Values from PubChem BioAssay AID1053208 (Peter MacCallum Cancer Centre, 2014).
Assay: 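Find knock-downs that sensitise mouse osteosarcoma cells to doxorubicin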 (primary screen). Cell system: mouse osteosarcoma cells, early-passage culture from an engineered mouse model of fibroblastic bone tumour. Reagent: siRNA pool against mouse genes, 40 nM. Timing: about 120 h (48 h before drug, then 72 h with drug). Challenge: doxorubicin 100 nM for 72 h, roughly 30-40% inhibitory dose. Measured: 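Luminescent ATP signal taken as viability with or without 100 nM doxorubicin for 72 h; mean of two wells set against non-targeting siRNA and turned into robust z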. Scale: viability z-score with doxorubicin: higher = more viable cells under doxorubicin; viability z-score without drug: higher = more viable cells with knock-down alone. Call rule: 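Called active if knock-down leaves viability unchanged without drug (z within -2 to 2) but lowers it with doxorubicin (z at or under -2)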.
Shown is a random part of about 17,000 deposited reagents. In the full data, 788 (4.7%) were called active. 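Calls rest on z-score classes alone; an extra cut-off of viability at most 70% of control was not applied to them.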 Unmarked entries are inactive. Further read-outs or replicates are left out here.

Against Cdc26 (cell division cycle 26), the entry reads combined z-score class no change with or without drug; viability z-score with doxorubicin -1.12; viability z-score without drug -0.17. After knock-down of Rab17 (RAB17, member RAS oncogene family), the screen gave combined z-score class no change with or without drug; viability z-score with doxorubicin -0.22; viability z-score without drug -0.17. For Armc12 (armadillo repeat containing 12) the deposit lists combined z-score class no change with or without drug; viability z-score with doxorubicin -1.8; viability z-score without drug -1.52. Or5m3b (olfactory receptor family 5 subfamily M member 3B) scored combined z-score class no change with or without drug; viability z-score with doxorubicin 1.01; viability z-score without drug -1.52. Against Spata16 (spermatogenesis associated 16), the entry reads combined z-score class no change with or without drug; viability z-score with doxorubicin 0; viability z-score without drug 0.17. With knock-down of H1f1 (H1.1 linker histone, cluster member), the screen gave combined z-score class no change with or without drug; viability z-score with doxorubicin 1.24; viability z-score without drug -0.17.

An excerpt of the results above, as a working copy:
Cdc26 (cell division cycle 26) | combined z-score class = no change with or without drug; viability z-score with doxorubicin = -1.12; viability z-score without drug = -0.17
Rab17 (RAB17, member RAS oncogene family) | combined z-score class = no change with or without drug; viability z-score with doxorubicin = -0.22; viability z-score without drug = -0.17

The listing continues.
With knock-down of Pdlim3 (PDZ and LIM domain 3), the screen gave combined z-score class no change with or without drug; viability z-score with doxorubicin -1.35; viability z-score without drug -1.01. After knock-down of Skint10 (selection and upkeep of intraepithelial T cells 10) the results were combined z-score class high cell count with doxorubicin only; viability z-score with doxorubicin 2.25; viability z-score without drug 1.85. With knock-down of Rpl32 (ribosomal protein L32) the results were combined z-score class low cell count with and without drug; viability z-score with doxorubicin -6.3; viability z-score without drug -7.93. For Tcf7l1 (transcription factor 7 like 1 (T cell specific, HMG box)) the deposit lists combined z-score class high cell count with doxorubicin only; viability z-score with doxorubicin 2.02; viability z-score without drug 1.18. Depletion of 4930578I06Rik (RIKEN cDNA 4930578I06 gene) gave: combined z-score class no change with or without drug; viability z-score with doxorubicin -0.9; viability z-score without drug -1.18. For Arid3a (AT-rich interaction domain 3A), the values are combined z-score class no change with or without drug; viability z-score with doxorubicin -0.67; viability z-score without drug 0.17.

For Ilf3 (interleukin enhancer binding factor 3), the values are combined z-score class no change with or without drug; viability z-score with doxorubicin -0.45; viability z-score without drug -1.18. Against Zmpste24 (zinc metallopeptidase, STE24), the values are combined z-score class no change with or without drug; viability z-score with doxorubicin 0.56; viability z-score without drug -1.52. For Kifap3 (kinesin-associated protein 3) the deposit lists combined z-score class no change with or without drug; viability z-score with doxorubicin -0.22; viability z-score without drug 1.69. With knock-down of Rai14 (retinoic acid induced 14) the results were combined z-score class no change with or without drug; viability z-score with doxorubicin 0; viability z-score without drug -1.69. With knock-down of Sts (steroid sulfatase) the results were combined z-score class no change with or without drug; viability z-score with doxorubicin 0.79; viability z-score without drug -0.51. Silencing of Rps18 (ribosomal protein S18) gave: combined z-score class low cell count with and without drug; viability z-score with doxorubicin -4.72; viability z-score without drug -4.22.

With knock-down of Bacc1 (BPTF associated chromatin complex component 1), the screen gave combined z-score class no change with or without drug; viability z-score with doxorubicin -1.01; viability z-score without drug -0.84.
